PubChem BioAssay AID1259254, NCATS – 2017
Purpose: 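Genome-wide screen for genes that prevent DNA re-replication in cancer cells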 (primary screen). Cell system: human HCT116 colorectal cancer cells. Knock-down reagent: single siRNA against human genes. Time to read-out: 3 days. Measurement: 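Nuclei stained with Hoechst and imaged; cell-cycle phase assigned by DNA content; G2 share scaled per plate, non-targeting siRNA 0%, GMNN siRNA 100%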. Reading the numbers: G2 robust z-score and G2 cells, % of GMNN control: higher = more G2 cells, more excess DNA replication. Rule for the call: 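An siRNA counts as active if its G2 robust z-score lies at least 5 MADs above the screen median; here such calls match roughly 38% of GMNN control or more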.
Shown is an unselected part of about 59,000 reagents tested. About 1,550 of them (2.6%) count as active. 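G2 share is only a proxy for re-replication; each gene was hit by three separate siRNAs, and active genes were retested.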 Reagents against one gene are numbered here. Not all columns of the deposit are shown. Not given: the amount of reagent.

With UTP3 #1, what was measured?
G2 robust z-score: 0.232; G2 cells, % of GMNN control: 4.6; outcome: inactive

For UTP3 #2, what was measured?
G2 robust z-score: 2.88; G2 cells, % of GMNN control: 23.2; outcome: inactive

With UTP3 #3, what was measured?
G2 robust z-score: 2.21; G2 cells, % of GMNN control: 18.5; outcome: inactive

With SLC12A2 #1, what does the deposit list?
G2 robust z-score: -0.389; G2 cells, % of GMNN control: 0.228; outcome: inactive

What did the screen give for SLC12A2 #2?
G2 robust z-score: -0.67; G2 cells, % of GMNN control: -1.74; outcome: inactive

How did the screen score SLC12A2 #3?
G2 robust z-score: -0.355; G2 cells, % of GMNN control: 0.47; outcome: inactive

With STH #1, what was measured?
G2 robust z-score: 2.95; G2 cells, % of GMNN control: 23.7; outcome: inactive

With STH #2, what was measured?
G2 robust z-score: -0.118; G2 cells, % of GMNN control: 2.14; outcome: inactive

For STH #3, what does the deposit list?
G2 robust z-score: -0.463; G2 cells, % of GMNN control: -0.293; outcome: inactive

With CYC1 #1, how do the results read?
G2 robust z-score: 3.03; G2 cells, % of GMNN control: 24.3; outcome: inactive

With CYC1 #2, how do the results read?
G2 robust z-score: 1.96; G2 cells, % of GMNN control: 16.8; outcome: inactive

With CYC1 #3, how do the results read?
G2 robust z-score: 1.07; G2 cells, % of GMNN control: 10.5; outcome: inactive

With KISS1R #1, what was measured?
G2 robust z-score: 4.93; G2 cells, % of GMNN control: 37.7; outcome: inactive

With KISS1R #2, how do the results read?
G2 robust z-score: -1.4; G2 cells, % of GMNN control: -6.89; outcome: inactive

For KISS1R #3, what does the deposit list?
G2 robust z-score: 0.745; G2 cells, % of GMNN control: 8.21; outcome: inactive

With STXBP5-AS1 #1, how do the results read?
G2 robust z-score: -0.24; G2 cells, % of GMNN control: 1.28; outcome: inactive

For STXBP5-AS1 #2, how do the results read?
G2 robust z-score: 6.66; G2 cells, % of GMNN control: 49.8; outcome: active

With STXBP5-AS1 #3, how do the results read?
G2 robust z-score: 1.67; G2 cells, % of GMNN control: 14.7; outcome: inactive

2 entries from above, sorted by “G2 cells, % of GMNN control”, descending:
KISS1R #1 | G2 robust z-score = 4.93; G2 cells, % of GMNN control = 37.7; outcome = inactive
KISS1R #2 | G2 robust z-score = -1.4; G2 cells, % of GMNN control = -6.89; outcome = inactive
